{"sequences": {"note": "Amino acid sequences for entries named in this document (tags omitted). Residues count along the entry.", "UniProt P14625, residues 22-799": "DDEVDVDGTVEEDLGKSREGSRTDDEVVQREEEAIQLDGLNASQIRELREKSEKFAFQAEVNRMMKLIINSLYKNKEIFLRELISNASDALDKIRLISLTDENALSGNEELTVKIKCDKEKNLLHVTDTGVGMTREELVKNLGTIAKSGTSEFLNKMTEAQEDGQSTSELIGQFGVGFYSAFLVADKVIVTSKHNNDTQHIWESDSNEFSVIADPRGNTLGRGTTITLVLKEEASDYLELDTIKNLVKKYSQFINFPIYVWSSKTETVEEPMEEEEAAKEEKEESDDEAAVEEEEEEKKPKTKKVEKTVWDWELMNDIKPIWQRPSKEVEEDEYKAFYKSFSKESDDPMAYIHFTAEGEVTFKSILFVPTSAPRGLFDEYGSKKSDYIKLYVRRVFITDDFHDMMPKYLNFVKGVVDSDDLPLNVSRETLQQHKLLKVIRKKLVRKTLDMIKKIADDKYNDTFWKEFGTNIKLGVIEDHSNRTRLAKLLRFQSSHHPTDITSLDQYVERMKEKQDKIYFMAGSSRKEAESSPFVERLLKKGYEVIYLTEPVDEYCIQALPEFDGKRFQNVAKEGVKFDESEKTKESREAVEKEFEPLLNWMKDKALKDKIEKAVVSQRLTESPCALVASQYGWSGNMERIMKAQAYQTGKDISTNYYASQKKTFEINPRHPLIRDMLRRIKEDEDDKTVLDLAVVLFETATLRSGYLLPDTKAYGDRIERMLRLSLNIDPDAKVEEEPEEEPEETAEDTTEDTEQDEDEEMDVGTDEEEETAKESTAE", "UniProt Q66HD0, residues 22-800": "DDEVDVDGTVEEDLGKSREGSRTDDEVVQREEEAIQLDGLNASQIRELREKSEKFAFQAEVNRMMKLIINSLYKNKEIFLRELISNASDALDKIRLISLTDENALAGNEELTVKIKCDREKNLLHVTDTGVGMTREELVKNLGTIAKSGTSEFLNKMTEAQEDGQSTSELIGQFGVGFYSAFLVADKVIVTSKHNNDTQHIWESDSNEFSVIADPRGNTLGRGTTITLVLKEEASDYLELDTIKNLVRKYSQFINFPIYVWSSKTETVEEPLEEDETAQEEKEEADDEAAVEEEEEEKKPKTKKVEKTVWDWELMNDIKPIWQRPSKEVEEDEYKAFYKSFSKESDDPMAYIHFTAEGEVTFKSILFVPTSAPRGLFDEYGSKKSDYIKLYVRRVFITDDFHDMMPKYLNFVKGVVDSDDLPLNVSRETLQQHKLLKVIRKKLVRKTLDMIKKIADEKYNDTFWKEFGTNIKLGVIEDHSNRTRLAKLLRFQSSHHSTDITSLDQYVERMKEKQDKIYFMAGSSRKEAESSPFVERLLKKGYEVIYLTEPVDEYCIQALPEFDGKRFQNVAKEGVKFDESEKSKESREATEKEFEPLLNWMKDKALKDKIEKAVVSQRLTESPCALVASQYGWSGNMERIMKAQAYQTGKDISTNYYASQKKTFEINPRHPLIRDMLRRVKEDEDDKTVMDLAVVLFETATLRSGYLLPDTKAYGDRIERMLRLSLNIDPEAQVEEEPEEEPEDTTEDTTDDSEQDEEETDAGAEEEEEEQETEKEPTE", "UniProt P02769, residues 25-607": "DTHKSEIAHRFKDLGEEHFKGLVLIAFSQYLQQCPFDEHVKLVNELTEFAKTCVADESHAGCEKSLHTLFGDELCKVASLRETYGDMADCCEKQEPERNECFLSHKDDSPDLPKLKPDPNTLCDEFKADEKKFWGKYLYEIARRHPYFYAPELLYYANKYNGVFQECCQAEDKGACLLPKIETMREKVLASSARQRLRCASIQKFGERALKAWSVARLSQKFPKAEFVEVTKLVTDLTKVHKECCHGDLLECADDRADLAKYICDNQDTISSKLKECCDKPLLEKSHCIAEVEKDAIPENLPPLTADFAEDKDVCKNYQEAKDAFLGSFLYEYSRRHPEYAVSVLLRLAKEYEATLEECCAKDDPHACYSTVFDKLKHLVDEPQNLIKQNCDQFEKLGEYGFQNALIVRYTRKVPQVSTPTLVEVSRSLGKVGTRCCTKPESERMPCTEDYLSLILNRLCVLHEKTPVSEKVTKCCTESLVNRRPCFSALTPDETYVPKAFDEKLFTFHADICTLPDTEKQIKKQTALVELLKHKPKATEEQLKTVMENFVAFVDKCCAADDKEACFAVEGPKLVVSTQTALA"}, "source": "patent US20230220056A1", "binders": {"B1": {"name": "anti-GRP94 human IgG antibody B5 (antibody, V domains shown)", "VH": "EVQLLESGGGLVQPGGSLRLSCAASGFTFSNYYMSWVRQAPGKGLEWVSGIYPNSGSTYYADSVKGRFTISRDNSKNTLYLQMNSLRAEDTAVYYCARDPLHPARFPFDYWGQGTLVTVSS", "VL": "QSVLTQPPSASGTPGQRVTISCTGSSSNIGNNAVSWYQQLPGTAPKLLIYADSHRPSGVPDRFSGSKSGTSASLAISGLRSEDEADYYCGAWDASLNAYVFGGGTKLTVL"}, "B2": {"name": "anti-GRP94 human IgG antibody E5 (antibody, V domains shown)", "VH": "EVQLLESGGGLVQPGGSLRLSCAASGFTFSNYAMSWVRQAPGKGLEWVSGISSSSGSTYYADSVKGRFTTSRDNSKNTLYLQMNSLRAEDTAVYYCARDRHPFSPNWFDYWGQGTLVTVSS", "VL": "B1 VL with T23S, S26P, N31S, A33T, S35T, G90A, A91S, A94D, A98G"}, "B3": {"name": "anti-GRP94 human IgG antibody 3G7 (antibody, V domains shown)", "VH": "EVQLLESGGGLVQPGGSLRLSCAASGFTFSNYSMSWVRQAPGKGLEWVSGIYYGSGNKYYADSVKGRFTISRDNSKNTLYLQMNSLRAEDTAVYYCAKNLASFDYWGQGTLVTVSS", "VL": "B1 VL with T23S, N31S, A33S, S35N, A51S, D52N, A91T, A94S, N97S, A98G"}}, "note": "Residue numbers refer to the chain shown, from its start. No constants are given. Whether binding was seen depends on the method and setting. Some entries that bind do so weakly or less than the wild type.", "data": [{"target": "recombinant human GRP94 (human) (UniProt P14625)", "test": "ELISA, antigen coated on plate", "values": [{"binder": "B1", "binding": "binds"}, {"binder": "B2", "binding": "binds"}, {"binder": "B3", "binding": "binds"}]}, {"target": "recombinant rat GRP94 (rat) (UniProt Q66HD0)", "test": "ELISA, antigen coated on plate", "values": [{"binder": "B1", "binding": "binds"}, {"binder": "B2", "binding": "binds"}, {"binder": "B3", "binding": "binds"}]}, {"target": "recombinant human GRP94 (human) (UniProt P14625)", "test": "ELISA, 100 ng rhGRP94 coated per well, IgG 0-500 nM", "values": [{"binder": "B1", "binding": "binds"}, {"binder": "B2", "binding": "binds"}, {"binder": "B3", "binding": "binds"}]}, {"target": "recombinant human GRP94 (human) (UniProt P14625)", "test": "ELISA on coated antigen, single IgG concentration not given", "values": [{"binder": "B1", "binding": "binds"}, {"binder": "B2", "binding": "binds"}, {"binder": "B3", "binding": "binds"}]}, {"target": "recombinant rat GRP94 (rat) (UniProt Q66HD0)", "test": "ELISA on coated antigen, single IgG concentration not given", "values": [{"binder": "B1", "binding": "binds"}, {"binder": "B2", "binding": "binds"}, {"binder": "B3", "binding": "binds"}]}, {"target": "rhGRP94 Part. 1 (human) (UniProt P14625)", "test": "epitope mapping ELISA, 100 ng fragment coated, IgG 1 µg/mL", "values": [{"binder": "B1", "binding": "binds"}, {"binder": "B2", "binding": "binds"}, {"binder": "B3", "binding": "binds"}]}, {"target": "BSA (bovine) (UniProt P02769)", "test": "epitope mapping ELISA, 100 ng BSA coated as negative control, IgG 1 µg/mL", "values": [{"binder": "B1", "binding": "no binding (tested: 1 µg/mL)"}, {"binder": "B2", "binding": "no binding (tested: 1 µg/mL)"}, {"binder": "B3", "binding": "no binding (tested: 1 µg/mL)"}]}]}
